Test results published in PMC9068810.
Construct, isoform or probe ends are uncertain for at least one entry. For some assays here: At least one verdict was read from the data and is not stated in words by the source. For some assays here: Whether high values mean tight binding is not given here for every scale.

Sequences of proteins named here, by UniProt entry; tags and fusion partners are left off. A change or cut given only in a name is not applied to a line headed by its entry.
UniProt P0A6X3: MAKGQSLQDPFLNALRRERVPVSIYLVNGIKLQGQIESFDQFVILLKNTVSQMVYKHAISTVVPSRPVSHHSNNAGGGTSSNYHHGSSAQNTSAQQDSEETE

Experiments:
[1] = molecular target: BioHfq (Escherichia coli) (UniProt P0A6X3); test: competition (smTIRF); conditions: 5 min, EMSA: 2 nM 32P-DsrA, room temperature, 30 min, competition in TNK buffer (10 mM Tris-HCl pH 7.5, 50 mM NaCl, 50 mM KCl), 5 nM Hfq, recombinant protein
[2] = molecular target: BioHfq (Escherichia coli) (UniProt P0A6X3); test: smTIRF colocalization; conditions: smTIRF: 5 nM Cy5 competitor, 5 min, recombinant protein, scale: % resident-Hfq showing competitor binding
[3] = molecular target: BioHfq (Escherichia coli) (UniProt P0A6X3); test: smTIRF; conditions: smTIRF: 5 nM Cy5 competitor, 5 min, recombinant protein, label: 5' Cy3 or Cy5
[4] = DsrA resident on Hfq, label: 5' Cy3 or Cy5
[5] = ChiX resident on Hfq, label: 5' Cy3 or Cy5

“GGACACCGUCGCUUAAAGUGACGGCAUAAUAAUAAAAAAAU [ChiX_dist]” was tested, and the binding signal ([1]; DsrA resident, commonly co-resides with DsrA, label: 5' Cy5, scale: % DsrA resident remaining at 5 nM competitor) was 79.
Sequence “GGACACCGUCGCUUAAAGUGACGGCAUAAUAAUAAAAAAAUGAAAUUCCUCUUUGACGGGCCAAUAGCGAUAUUGGCCAUUUUUUU [ChiX]” has a binding signal [2, 4] of 77.1.
“GGCUGAAAAACAUAACCCAUAAAAUGCUAGCUGUACCAGGAACCACCUCCUUAGCCUGUGUAAUCUCCCUUACACGGGCUUAUUUUUU [CyaR]” was tested, and the binding result ([3]; CyaR as Cy3 resident) was “binds”, the binding signal [2, 5] was 17.3 and the binding signal [2, 4] was 74.7.
“GGGAACACAUCAGAUUUCCUGGUGUAACGAAUUUUUUAAGUGCUUCUUGCUUAAGCAAGUUUCAUCCCGACCCCCUCAGGGUCGGGAUUUUUUU [DsrA]” showed a binding signal ([2]; ChiX resident on Hfq, label: 5' 32P (EMSA), 5' Cy3 or Cy5 (smTIRF)) of 82.1, a binding signal ([2]; DsrA resident on Hfq, label: 5' 32P (EMSA), 5' Cy3 or Cy5 (smTIRF)) of 64.9 and a binding signal ([1]; ChiX resident, label: 5' 32P (EMSA), 5' Cy3 or Cy5 (smTIRF), scale: % ChiX resident remaining at 5 nM competitor) of 87.
For “GGUUCCGAUGUAGACCCGUCCUCCUUCGCCUGCGUCACGGGUCCUGGUUAGACGCAGGCGUUUUCU [RydC]”, the binding result ([3]; RydC as Cy3 resident) was “binds”, the binding signal [2, 5] was 71 and the binding signal [2, 4] was 62.9.
